Measured values as given in patent US20260355151A1, “SPIROCYCLIC DERIVATIVE-CONTAINING SALT OR CRYSTAL FORM, AND PREPARATION METHOD THEREFOR AND USE THEREOF” (SHUJING BIOPHARMA CO., LTD, priority 2022, published 2026).
Counter-ions that a name gives are not always drawn. At least one read-out could not be matched to a standard name with certainty.

Assay: Solid stability experiment (high temperature, high humidity, light)
Assay type: physicochemical
Procedure: Investigating the chemical stability of each hydrochloride crystal form of Compound A under high temperature, high humidity, and light conditions.
Appropriate amounts of hydrochloride crystal form I and hydrochloride crystal form II of Compound A were weighed and placed in weighing dishes respectively; three samples for each salt were prepared, and placed respectively in a oven at 60 °C, a drying dish with RH 92.5%, and a stability test chamber with an illumination condition of 5000 lx for 85 days. After mixing all samples evenly at day 0, day 10, day 20, and day 85, samples were taken and dissolved in acetonitrile and water, and the content and impurity changes were detected by HPLC-related substance detection method.

SMILES	Increase of total impurities (High temperature of 60 °C, day 10) [%]	Increase of total impurities (High temperature of 60 °C, day 20) [%]	Increase of total impurities (High temperature of 60 °C, day 85, 122400 min) [%]	Increase of total impurities (High humidity of RH 92.5%, day 10) [%]	Increase of total impurities (High humidity of RH 92.5%, day 20) [%]	Increase of total impurities (High humidity of RH 92.5%, day 85, 122400 min) [%]	Increase of total impurities (Illumination of 5000 1x, day 10) [%]	Increase of total impurities (Illumination of 5000 1x, day 20) [%]	Increase of total impurities (Illumination of 5000 1x, day 85) [%]
CNC[C@@H]1OCC2(CC2)c2sccc21 [Hydrochloride crystal form I, (R)-1-(4′H,6′H-spiro[cyclopropane-1,7′-thieno[3,2-c]pyran]-4′-yl)-N-methylmethylamine]	<0.1	<0.1	0.182						
CNC[C@@H]1OCC2(CC2)c2sccc21 [Hydrochloride crystal form II, (R)-1-(4′H,6′H-spiro[cyclopropane-1,7′-thieno[3,2-c]pyran]-4′-yl)-N-methylmethylamine]				<0.1	<0.1	0.145	<0.1	<0.1	<0.1
